Assays:
HCT116 PTTG1−/− cells = assay: BrdU incorporation assay; format: cell-based; conditions: Homo sapiens, HCT-116, read-out: inhibition of cell proliferation (BrdU incorporation)
Protocol: (§1) The BrdU incorporation assay was carried out using a commercial kit. Briefly, culture cells in 96-well microplates in a final volume of 100 ul culture medium per well. After treatment, add 10 ul BrdU labeling solution per well (final concentration: 10 uM BrdU) and incubate for 2-18 h at 37° C. Carefully remove the culture medium and wash cells twice with 250 ul wash medium containing 10% serum per well. Cells fixed and treated with nucleases working solution for 30 min at 37° C. The incorporated BrdU is detected using anti-BrdU-POD, Fab fragments and peroxidase substrate ABTS. The absorbances of the samples are measured at 405 nm against the background control, using a Victor 3 multiwell plate reader.

HCT116 WT cells = assay: BrdU incorporation assay; format: cell-based; conditions: Homo sapiens, HCT-116, read-out: inhibition of cell proliferation (BrdU incorporation)
Protocol: as §1

What does the source list for `O=C(CCCCCCC(=O)Nc1ccccc1)NO` [SAHA, suberoylanilide hydroxamic acid]?
inhibition at 0.313 µM (HCT116 PTTG1−/− cells): 49%; inhibition at 0.313 µM (HCT116 WT cells): 14%

From patent US8216782B2, “PTTG1 as a biomarker for cancer treatment” (Cedars-Sinai Medical Center, priority 2008, dated 2012)
